{"source": "patent US20080317700A1", "about": "(priority 2006, published 2008)", "key": {"[1]": {"system": "green algae CD 1 Red", "assay_type": "cell-based", "conditions": "CD1 Red, 5 days", "experimental": "(§1) After phototrophical propagation during the 5 days under cool fluorescence light (intensity 5000 lux), the average radii of inhibition zones were measured. Water soaked filter paper circles were used as controls. Experiments for each herbicide concentration were repeated 3 times."}, "[2]": {"system": "cyanobacteria Synechococcus 7002", "assay_type": "cell-based", "conditions": "5 days", "experimental": "as §1"}}, "note": "Like-named read-outs stand apart in the source and are kept apart here. For at least one compound, name, drawing or mass did not settle the structure.", "data": [{"smiles": "C=CC(N)=O", "note": "[acrylamide]", "values": [{"measurement": "Average radii of the inhibition zones", "setting": "[1]; herbicide concentration 0.3 mM", "value": "No"}, {"measurement": "Average radii of the inhibition zones", "setting": "[1]; herbicide concentration 3 mM", "value": "No"}, {"measurement": "Average radii of the inhibition zones", "setting": "[1]; herbicide concentration 30 mM", "value": "No"}, {"measurement": "Average radii of the inhibition zones", "setting": "[2]; Syn. 7002, herbicide concentration 0.3 mM", "value": "No"}, {"measurement": "Average radii of the inhibition zones", "setting": "[2]; Syn. 7002, herbicide concentration 3 mM", "value": "No"}, {"measurement": "Average radii of the inhibition zones", "setting": "[2]; Syn. 7002, herbicide concentration 30 mM", "value": "No"}, {"measurement": "Average radii of the inhibition zones", "setting": "[2]; Syn. 7002, herbicide concentration 300 mM", "value": "Complete"}]}]}
